Here are results for 37 sequences from paper PMC7819943, “Rice protein-binding microarrays: a tool to detect cis-acting elements near promoter regions in rice”.

Some of the results follow.

This assay addresses T1, OsSMF1 (Oryza sativa, UniProt Q6ZLB0 1-436).
T1 sequence: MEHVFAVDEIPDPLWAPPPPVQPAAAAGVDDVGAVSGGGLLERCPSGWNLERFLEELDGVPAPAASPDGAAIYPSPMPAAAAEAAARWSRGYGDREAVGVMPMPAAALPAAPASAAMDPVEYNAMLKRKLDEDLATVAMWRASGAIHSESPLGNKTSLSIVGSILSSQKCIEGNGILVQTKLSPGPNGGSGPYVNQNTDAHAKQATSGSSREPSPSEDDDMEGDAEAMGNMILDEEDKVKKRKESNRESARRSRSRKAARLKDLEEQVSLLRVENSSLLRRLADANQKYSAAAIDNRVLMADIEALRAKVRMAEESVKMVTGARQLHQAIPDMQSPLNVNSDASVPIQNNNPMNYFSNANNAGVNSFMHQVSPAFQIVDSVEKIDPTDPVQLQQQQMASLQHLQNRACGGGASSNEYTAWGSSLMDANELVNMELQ
The experiment in a line: protein-binding microarray (RPBM); PBS, 2% BSA, 51.3 ng/ul salmon testes DNA, 50 uM zinc acetate, 200 nM TF, 25 C, 1 h; high values mean tight binding. Particulars: protein: recombinant; tags: N-terminal polyhistidine and DsRed monomer fusion (pET32a); chain copies: 2; label: CyDye5-dUTP incorporated in the synthesized complementary strand; 3' TTTTT single-stranded linker to array surface; dsDNA, one strand shown. The essentials: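 Transcription factors were each fused at the N-terminus to a polyhistidine tag plus DsRed and expressed in E. coli BL21-CodonPlus before Ni–NTA purification. Binding to a double-stranded custom Agilent array was carried out with 200 nM protein at 25 °C for 1 h in PBS, 2% BSA, salmon testes DNA and 50 µM zinc acetate. The binding signal is per-feature fluorescence intensity, in arbitrary units, on an Axon 4000B scanner.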
In the case of “ACTATTTTACGTCCCCACATTTCCAACCATTCGCCGCCGCCGGAGTCACCTAGTGCAG”, the binding signal was 12900 fluorescence intensity (a.u.).
As to “TGTTCCCATCCATCAGCAGCGAACACACCCTATGTCCCTACGGAGTCACCTAGTGCAG”, the binding signal is 3170 fluorescence intensity (a.u.).
The figure for “CTTAGCCGGCTATACGCGGCTACGTTGGCTGACTTGGTAGCGGAGTCACCTAGTGCAG” is 4170 fluorescence intensity (a.u.); for “TGCGTTTGGAGAGGTGACTCCAAGATGGTGGTCGGCGTGGCGGAGTCACCTAGTGCAG” it is 3390 fluorescence intensity (a.u.).
Under “GTCCGGGGCAGCCAGATCCAGCGCCACCTCACCCATGGCACGGAGTCACCTAGTGCAG” stands 7320 fluorescence intensity (a.u.); under “TCCGGGTCCGGTGACGCGGCGGCACAGTACCAGGAGAGGACGGAGTCACCTAGTGCAG”, 5160 fluorescence intensity (a.u.); under “GTCCTACGCCTATGCAGCGGAGAGGCATGCTCGCGTGTACCGGAGTCACCTAGTGCAG”, 3960 fluorescence intensity (a.u.).
The figure for “TTCTTCCACGCCCCGCATCGCCGCCGCCGCCGGAGAGGGACGGAGTCACCTAGTGCAG” is 3520 fluorescence intensity (a.u.); for “GGCCTCAGCAAGCGACACGTCCGTGTCACACGCACGCACGCGGAGTCACCTAGTGCAG” it is 7470 fluorescence intensity (a.u.); for “CCGGATGGCTTAGTCATCCAGTTGGAGAGGCTATTGGAGCCGGAGTCACCTAGTGCAG” it is 6160 fluorescence intensity (a.u.).
Consider “GCTAGGTAACGTACCATTGACAACAAGACACTCGTGGTGACGGAGTCACCTAGTGCAG”, for which the binding signal is 4540 fluorescence intensity (a.u.).
Under “CTGAAAGTCTGAGATGTGCCACGCCTCTTTTCTTCTGTCCCGGAGTCACCTAGTGCAG” stands 3460 fluorescence intensity (a.u.); under “TGTTCTAACGAATTTCAGGCAACACGTGCGAAACAAACCACGGAGTCACCTAGTGCAG”, 3610 fluorescence intensity (a.u.).
The figure for “TTGATTGGTCACCATCAGCATAGCTACATGTAAGGAGCTACGGAGTCACCTAGTGCAG” is 3220 fluorescence intensity (a.u.).
With “GATTTTGCATGCATCATGCATGGCCTGGCATTGTACCCTTCGGAGTCACCTAGTGCAG”, the binding signal is 4170 fluorescence intensity (a.u.).
The figure for “CTCCCCGGCTTCTCTTCGCCGGCGACGACGATGCGGTGCGCGGAGTCACCTAGTGCAG” is 3340 fluorescence intensity (a.u.).
Take “AAAACACATCATGGCCATGTTTGGTTCCATGGGCTAATTACGGAGTCACCTAGTGCAG”: the binding signal is 3280 fluorescence intensity (a.u.).
The figure for “CGGCACAAGGAGTGGCAGCCACCCAGAGGCGCCCACCCTTCGGAGTCACCTAGTGCAG” is 3820 fluorescence intensity (a.u.); for “CCTACCTTTCTATTCAAAAGAGAAAAGAAACAATGTTATCCGGAGTCACCTAGTGCAG” it is 9550 fluorescence intensity (a.u.); for “GGGTGTACTGTCCGCTGATGCTCGTGGGAGGCGGCGGCGGCGGAGTCACCTAGTGCAG” it is 3470 fluorescence intensity (a.u.).
Under “GTCTCATGTATCATCAACTTTCGATAAGTGGTTGCCTCTTCGGAGTCACCTAGTGCAG” stands 3620 fluorescence intensity (a.u.); under “TGAAATAATGCCAATGGTTGTCACTGCGTGACTTGTGAGACGGAGTCACCTAGTGCAG”, 3500 fluorescence intensity (a.u.).
The figure for “GCCAGCCTCCTCCTGCCACGTCGGTTCGCGTGCGCCACGGCGGAGTCACCTAGTGCAG” is 13000 fluorescence intensity (a.u.); for “TCTTCCCGACGTGGACCACCGCGCTCGCCGCGGTCACCGGCGGAGTCACCTAGTGCAG” it is 4060 fluorescence intensity (a.u.).
Regarding “TATGCTGATTCAGATTGCTTGTGTTTGTCATTTTCCTCGTCGGAGTCACCTAGTGCAG”, the binding signal was 5640 fluorescence intensity (a.u.).
Under “GAGAGCGAGGGGTTGGTGGTGGTGTAGGGTTTTAGTTTACCGGAGTCACCTAGTGCAG” stands 4230 fluorescence intensity (a.u.); under “AGCTCGGGCTGACGTGTCGTGACGCGGGAGCGTCCACGCCCGGAGTCACCTAGTGCAG”, 23300 fluorescence intensity (a.u.).
Under “ACGGGGATGACTCCGATGACTCTCCTGGCCTCGCCGCCTCCGGAGTCACCTAGTGCAG” stands 5110 fluorescence intensity (a.u.); under “CTCAGTTTTACGTGTACCTAGCTATATACGTAATGTGCCACGGAGTCACCTAGTGCAG”, 5690 fluorescence intensity (a.u.).
Under “CTTCTGTTTACTAATTGGATTCTCTGTGTGAACTCTTACGCGGAGTCACCTAGTGCAG” stands 3150 fluorescence intensity (a.u.); under “TGAGCTCACACGTAGTACTCTACTACGGCTAAAATTCAATCGGAGTCACCTAGTGCAG”, 3290 fluorescence intensity (a.u.); under “CATGCGTGATAATCGTGCGGTTTCTTAAACCTGTTGTTCGCGGAGTCACCTAGTGCAG”, 3160 fluorescence intensity (a.u.).
On to “ATTCACAGTGCTTACTTGCAGCTACTGCAATGACGCGTGCCGGAGTCACCTAGTGCAG”, for which the binding signal is 5640 fluorescence intensity (a.u.).
Regarding “GATATGTGGGTCCAGTGACAAATCATTTATCACCATCCGTCGGAGTCACCTAGTGCAG”, the binding signal was 3490 fluorescence intensity (a.u.).
The figure for “AAATTAGCCTGTCACCATCATCACCAAAAGACGACCATAGCGGAGTCACCTAGTGCAG” is 4130 fluorescence intensity (a.u.); for “ATCGCCGCCGACGTGGCGTTCTTCTTCTCGGCAACGCCGTCGGAGTCACCTAGTGCAG” it is 13500 fluorescence intensity (a.u.); for “GCAGCCGCCATGGCTGCTCCTCCTCCACCTCATCGCCATCCGGAGTCACCTAGTGCAG” it is 6450 fluorescence intensity (a.u.).
